Laboratory results published in patent publication US20220072032A1.
Results are given in words; binding and its absence hold for the method and conditions named.

Molecular target: PCSK9 variant R93R96R97H139 (human)
Assay: immunoprecipitation of 35S-PCSK9 variants, autoradiography (FIG. 8I)

binding: no binding
B1: mAb 5E11 (rat hybridoma BNT-5E11-D4/G1-E4) (antibody, V domains shown)
VH: EVQLQESGPGLVKPSQSLSLTCSVTGYTITSGYDWSWIRRFPGNTMEWMGDISYSGSTNYNPSLKSRVSITRDTSKNQFFLQLNSVTTGDTATYYCAKLPGWGQGTLVTVSS
VL: DVVLTQTPVFLSVTLGDQTSISCRSSQSLEYSDGYTYLEWYLQKPGQSPQLLIYEVSNRFSGVPDRFIGSGSGTDFTLKISRVEPEDLGVYYCFQGTHDPLTFGSGTKLEIK
